Data: the supplement of paper PMC6411743
± gives the standard deviation of the averaged measurements. Some of the results follow.

Target: T1, SEMA4D (UniProt Q92854)
T1 sequence (whole entry): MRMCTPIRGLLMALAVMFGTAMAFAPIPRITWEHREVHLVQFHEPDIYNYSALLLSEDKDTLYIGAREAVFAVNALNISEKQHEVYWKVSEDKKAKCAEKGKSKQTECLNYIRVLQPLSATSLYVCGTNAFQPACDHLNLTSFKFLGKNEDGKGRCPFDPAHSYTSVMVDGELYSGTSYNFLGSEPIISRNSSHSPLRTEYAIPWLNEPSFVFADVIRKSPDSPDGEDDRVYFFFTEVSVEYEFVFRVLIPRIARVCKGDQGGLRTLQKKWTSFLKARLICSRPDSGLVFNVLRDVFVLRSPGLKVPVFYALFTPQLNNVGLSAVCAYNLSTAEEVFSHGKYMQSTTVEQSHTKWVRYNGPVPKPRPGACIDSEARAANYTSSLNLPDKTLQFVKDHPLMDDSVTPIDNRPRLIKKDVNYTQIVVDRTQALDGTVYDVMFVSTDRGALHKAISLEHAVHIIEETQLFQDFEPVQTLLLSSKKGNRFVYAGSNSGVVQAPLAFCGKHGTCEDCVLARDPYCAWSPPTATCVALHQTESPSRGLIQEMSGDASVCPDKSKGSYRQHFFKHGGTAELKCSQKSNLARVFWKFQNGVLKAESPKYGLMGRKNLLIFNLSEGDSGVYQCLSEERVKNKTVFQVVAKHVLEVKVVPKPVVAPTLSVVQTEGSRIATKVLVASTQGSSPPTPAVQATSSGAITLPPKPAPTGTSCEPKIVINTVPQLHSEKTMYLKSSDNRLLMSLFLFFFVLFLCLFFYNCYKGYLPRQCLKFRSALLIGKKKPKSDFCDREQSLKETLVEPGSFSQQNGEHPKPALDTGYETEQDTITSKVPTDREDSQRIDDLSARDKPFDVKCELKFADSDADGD
Assay: NP40-soluble protein abundance relative to vehicle (solubility fold change) (ratio); higher = more soluble protein in presence of GTP
Method: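 Solubility proteome profiling in Jurkat crude lysate. Lysate was treated with Mg-GTP (0.1-10 mM) for 10 min at room temperature and 3 min at 37 °C, then solubilised with 0.8% NP40 and benzonase, followed by ultracentrifugation. Proteins were quantified by TMT10 LC-MS/MS; the value is the NP40-soluble abundance relative to the NP40-processed vehicle, from 3 independent experiments.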

Nc1nc2c(ncn2[C@@H]2O[C@H](COP(=O)(O)OP(=O)(O)OP(=O)(O)O)[C@@H](O)[C@H]2O)c(=O)[nH]1 [guanosine triphosphate]
NP40-soluble protein abundance (concentration: 0.1mM): 0.942 ± 0.029 | NP40-soluble protein abundance (concentration: 0.5mM): 0.911 ± 0.044 | NP40-soluble protein abundance (concentration: 1mM): 0.946 ± 0.069 | NP40-soluble protein abundance (concentration: 2mM): 0.915 ± 0.087 | NP40-soluble protein abundance (concentration: 4mM): 0.89 ± 0.081 | NP40-soluble protein abundance (concentration: 6mM): 0.918 ± 0.082 | NP40-soluble protein abundance (concentration: 8mM): 0.926 ± 0.053 | NP40-soluble protein abundance (concentration: 10mM): 0.912 ± 0.028
